Reference: the supplement of paper PMC6411743
± gives the standard deviation of the averaged measurements. This is a selection; strong and weak results do not stand in their true shares.

Chains of the proteins cited; added tags and fusions are not shown. Lines headed by an entry give the natural chain unless they say otherwise; changes in a name come on top.
UniProt Q9ULF5: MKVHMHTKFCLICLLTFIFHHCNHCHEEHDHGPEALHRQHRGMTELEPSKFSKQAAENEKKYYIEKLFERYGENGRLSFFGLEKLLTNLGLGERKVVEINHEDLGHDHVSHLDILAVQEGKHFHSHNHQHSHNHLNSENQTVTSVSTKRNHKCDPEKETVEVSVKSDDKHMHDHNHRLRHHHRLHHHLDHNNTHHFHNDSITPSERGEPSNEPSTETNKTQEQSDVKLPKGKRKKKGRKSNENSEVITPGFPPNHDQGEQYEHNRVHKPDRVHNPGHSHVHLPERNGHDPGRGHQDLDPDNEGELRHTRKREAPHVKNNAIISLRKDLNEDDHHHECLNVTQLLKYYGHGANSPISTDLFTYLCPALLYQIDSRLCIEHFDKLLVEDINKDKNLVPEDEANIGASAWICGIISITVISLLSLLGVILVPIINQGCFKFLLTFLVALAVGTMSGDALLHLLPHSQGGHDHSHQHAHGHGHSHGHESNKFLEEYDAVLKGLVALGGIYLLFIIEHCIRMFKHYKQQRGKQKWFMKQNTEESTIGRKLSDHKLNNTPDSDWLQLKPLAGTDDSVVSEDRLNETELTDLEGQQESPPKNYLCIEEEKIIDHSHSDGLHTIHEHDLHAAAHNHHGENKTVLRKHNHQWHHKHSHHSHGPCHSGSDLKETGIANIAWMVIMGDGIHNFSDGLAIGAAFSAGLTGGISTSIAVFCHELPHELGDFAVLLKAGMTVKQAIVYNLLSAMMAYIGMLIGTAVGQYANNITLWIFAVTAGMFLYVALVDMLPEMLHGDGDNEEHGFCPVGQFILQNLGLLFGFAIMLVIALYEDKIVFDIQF
UniProt Q9UBV2: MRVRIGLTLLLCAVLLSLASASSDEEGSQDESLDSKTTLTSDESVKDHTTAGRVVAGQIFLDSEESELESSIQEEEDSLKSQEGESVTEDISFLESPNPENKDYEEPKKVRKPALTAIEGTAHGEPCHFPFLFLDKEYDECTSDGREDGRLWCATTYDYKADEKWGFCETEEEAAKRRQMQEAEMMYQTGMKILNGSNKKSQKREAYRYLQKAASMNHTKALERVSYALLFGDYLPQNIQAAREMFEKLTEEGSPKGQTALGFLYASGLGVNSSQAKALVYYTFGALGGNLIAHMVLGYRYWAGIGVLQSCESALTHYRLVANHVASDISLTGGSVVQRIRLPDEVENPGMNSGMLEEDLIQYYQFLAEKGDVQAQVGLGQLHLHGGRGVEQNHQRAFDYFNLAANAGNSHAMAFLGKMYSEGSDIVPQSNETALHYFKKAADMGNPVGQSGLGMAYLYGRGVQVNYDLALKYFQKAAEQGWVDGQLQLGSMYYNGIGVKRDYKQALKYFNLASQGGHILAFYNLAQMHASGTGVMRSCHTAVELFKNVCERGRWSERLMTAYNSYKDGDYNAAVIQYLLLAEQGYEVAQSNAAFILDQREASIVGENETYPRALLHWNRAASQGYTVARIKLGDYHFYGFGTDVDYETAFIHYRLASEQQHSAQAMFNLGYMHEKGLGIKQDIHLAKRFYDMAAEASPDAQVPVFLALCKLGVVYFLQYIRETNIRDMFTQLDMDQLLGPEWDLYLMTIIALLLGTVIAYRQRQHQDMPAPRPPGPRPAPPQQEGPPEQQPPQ
UniProt Q9P2Y5: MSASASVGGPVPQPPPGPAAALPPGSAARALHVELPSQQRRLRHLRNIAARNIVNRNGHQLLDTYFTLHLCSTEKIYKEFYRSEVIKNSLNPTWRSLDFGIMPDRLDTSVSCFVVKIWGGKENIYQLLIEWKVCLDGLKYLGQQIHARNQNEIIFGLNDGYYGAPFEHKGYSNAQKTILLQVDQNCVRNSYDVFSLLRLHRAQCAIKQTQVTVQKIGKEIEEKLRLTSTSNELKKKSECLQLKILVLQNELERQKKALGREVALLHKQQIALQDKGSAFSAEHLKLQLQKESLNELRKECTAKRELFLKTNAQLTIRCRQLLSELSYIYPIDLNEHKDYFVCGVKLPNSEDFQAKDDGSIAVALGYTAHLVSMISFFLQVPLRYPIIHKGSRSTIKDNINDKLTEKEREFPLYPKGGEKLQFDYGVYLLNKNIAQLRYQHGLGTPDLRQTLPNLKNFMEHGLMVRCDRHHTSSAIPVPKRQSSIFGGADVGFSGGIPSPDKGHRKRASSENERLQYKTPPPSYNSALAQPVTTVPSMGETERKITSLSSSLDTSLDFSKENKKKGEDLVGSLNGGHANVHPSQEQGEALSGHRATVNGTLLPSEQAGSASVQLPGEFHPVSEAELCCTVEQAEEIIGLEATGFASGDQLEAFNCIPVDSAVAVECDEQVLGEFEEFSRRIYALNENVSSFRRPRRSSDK
UniProt Q9UBF6, whole entry: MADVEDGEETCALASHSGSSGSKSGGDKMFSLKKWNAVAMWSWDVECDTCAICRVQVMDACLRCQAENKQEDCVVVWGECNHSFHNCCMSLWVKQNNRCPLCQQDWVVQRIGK
UniProt Q9UBN7: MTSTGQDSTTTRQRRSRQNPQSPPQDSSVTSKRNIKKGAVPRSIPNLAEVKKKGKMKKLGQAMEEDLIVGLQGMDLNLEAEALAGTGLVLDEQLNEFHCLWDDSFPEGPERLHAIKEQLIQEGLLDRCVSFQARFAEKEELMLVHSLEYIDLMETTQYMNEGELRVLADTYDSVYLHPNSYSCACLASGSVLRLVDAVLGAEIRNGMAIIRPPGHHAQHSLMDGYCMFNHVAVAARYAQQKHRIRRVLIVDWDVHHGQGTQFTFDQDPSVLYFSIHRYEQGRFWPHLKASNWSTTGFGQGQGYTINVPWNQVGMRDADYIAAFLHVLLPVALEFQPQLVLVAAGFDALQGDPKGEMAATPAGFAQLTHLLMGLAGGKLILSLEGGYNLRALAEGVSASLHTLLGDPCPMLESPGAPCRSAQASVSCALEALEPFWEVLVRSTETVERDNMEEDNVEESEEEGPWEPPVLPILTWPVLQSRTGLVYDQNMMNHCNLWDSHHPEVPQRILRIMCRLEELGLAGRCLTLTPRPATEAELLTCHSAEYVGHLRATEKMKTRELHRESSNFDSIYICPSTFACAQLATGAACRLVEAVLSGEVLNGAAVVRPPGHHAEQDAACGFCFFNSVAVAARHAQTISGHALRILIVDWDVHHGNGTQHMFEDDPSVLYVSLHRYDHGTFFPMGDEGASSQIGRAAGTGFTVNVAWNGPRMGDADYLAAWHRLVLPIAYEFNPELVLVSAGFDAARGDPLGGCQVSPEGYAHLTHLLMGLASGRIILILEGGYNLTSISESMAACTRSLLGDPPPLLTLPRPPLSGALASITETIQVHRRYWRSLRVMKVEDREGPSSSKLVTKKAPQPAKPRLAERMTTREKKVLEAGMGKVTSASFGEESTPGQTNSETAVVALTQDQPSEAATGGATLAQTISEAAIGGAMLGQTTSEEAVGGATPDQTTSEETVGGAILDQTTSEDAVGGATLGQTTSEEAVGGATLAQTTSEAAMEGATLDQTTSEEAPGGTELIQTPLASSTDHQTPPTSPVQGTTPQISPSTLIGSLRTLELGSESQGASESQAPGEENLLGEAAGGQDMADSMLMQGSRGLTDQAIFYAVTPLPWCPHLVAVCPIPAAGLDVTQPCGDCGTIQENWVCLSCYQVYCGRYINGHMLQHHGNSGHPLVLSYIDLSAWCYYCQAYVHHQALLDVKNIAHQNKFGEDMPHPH
UniProt Q9UBB5, whole entry: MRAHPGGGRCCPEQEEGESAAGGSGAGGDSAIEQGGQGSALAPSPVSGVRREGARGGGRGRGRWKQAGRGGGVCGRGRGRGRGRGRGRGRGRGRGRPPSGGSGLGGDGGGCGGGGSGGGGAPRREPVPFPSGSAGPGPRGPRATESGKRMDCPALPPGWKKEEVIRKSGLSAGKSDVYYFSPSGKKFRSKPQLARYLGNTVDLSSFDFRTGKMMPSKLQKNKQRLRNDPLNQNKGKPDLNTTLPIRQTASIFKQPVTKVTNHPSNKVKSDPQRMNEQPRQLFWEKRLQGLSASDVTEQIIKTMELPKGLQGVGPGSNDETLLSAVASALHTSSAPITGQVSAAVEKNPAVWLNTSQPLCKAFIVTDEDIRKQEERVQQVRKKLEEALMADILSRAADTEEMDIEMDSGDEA
UniProt Q9UHQ9: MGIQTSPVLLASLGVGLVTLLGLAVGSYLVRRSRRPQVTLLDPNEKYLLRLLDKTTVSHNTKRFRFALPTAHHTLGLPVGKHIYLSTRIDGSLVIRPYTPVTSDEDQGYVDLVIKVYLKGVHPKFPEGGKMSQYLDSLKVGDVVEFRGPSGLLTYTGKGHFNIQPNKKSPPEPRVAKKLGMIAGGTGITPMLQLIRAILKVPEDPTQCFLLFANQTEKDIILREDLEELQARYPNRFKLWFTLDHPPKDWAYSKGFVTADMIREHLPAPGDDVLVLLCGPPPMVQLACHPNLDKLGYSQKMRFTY
UniProt Q9UNF1: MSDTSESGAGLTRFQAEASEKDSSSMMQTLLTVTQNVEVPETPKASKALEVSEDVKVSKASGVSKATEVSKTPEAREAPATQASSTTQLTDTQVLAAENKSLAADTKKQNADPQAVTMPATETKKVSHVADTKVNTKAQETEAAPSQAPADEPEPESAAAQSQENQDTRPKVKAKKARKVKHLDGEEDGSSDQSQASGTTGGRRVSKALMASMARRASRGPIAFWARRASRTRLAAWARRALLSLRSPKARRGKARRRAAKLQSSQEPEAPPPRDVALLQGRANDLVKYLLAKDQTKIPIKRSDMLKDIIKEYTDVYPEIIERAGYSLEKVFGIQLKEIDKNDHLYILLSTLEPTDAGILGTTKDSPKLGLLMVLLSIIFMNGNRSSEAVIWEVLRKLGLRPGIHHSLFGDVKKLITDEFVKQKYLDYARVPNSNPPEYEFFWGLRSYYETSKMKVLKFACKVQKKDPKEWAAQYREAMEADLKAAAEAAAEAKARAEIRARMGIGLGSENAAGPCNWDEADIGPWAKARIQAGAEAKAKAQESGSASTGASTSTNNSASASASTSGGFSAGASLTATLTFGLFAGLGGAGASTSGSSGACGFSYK
UniProt Q9ULG1, whole entry: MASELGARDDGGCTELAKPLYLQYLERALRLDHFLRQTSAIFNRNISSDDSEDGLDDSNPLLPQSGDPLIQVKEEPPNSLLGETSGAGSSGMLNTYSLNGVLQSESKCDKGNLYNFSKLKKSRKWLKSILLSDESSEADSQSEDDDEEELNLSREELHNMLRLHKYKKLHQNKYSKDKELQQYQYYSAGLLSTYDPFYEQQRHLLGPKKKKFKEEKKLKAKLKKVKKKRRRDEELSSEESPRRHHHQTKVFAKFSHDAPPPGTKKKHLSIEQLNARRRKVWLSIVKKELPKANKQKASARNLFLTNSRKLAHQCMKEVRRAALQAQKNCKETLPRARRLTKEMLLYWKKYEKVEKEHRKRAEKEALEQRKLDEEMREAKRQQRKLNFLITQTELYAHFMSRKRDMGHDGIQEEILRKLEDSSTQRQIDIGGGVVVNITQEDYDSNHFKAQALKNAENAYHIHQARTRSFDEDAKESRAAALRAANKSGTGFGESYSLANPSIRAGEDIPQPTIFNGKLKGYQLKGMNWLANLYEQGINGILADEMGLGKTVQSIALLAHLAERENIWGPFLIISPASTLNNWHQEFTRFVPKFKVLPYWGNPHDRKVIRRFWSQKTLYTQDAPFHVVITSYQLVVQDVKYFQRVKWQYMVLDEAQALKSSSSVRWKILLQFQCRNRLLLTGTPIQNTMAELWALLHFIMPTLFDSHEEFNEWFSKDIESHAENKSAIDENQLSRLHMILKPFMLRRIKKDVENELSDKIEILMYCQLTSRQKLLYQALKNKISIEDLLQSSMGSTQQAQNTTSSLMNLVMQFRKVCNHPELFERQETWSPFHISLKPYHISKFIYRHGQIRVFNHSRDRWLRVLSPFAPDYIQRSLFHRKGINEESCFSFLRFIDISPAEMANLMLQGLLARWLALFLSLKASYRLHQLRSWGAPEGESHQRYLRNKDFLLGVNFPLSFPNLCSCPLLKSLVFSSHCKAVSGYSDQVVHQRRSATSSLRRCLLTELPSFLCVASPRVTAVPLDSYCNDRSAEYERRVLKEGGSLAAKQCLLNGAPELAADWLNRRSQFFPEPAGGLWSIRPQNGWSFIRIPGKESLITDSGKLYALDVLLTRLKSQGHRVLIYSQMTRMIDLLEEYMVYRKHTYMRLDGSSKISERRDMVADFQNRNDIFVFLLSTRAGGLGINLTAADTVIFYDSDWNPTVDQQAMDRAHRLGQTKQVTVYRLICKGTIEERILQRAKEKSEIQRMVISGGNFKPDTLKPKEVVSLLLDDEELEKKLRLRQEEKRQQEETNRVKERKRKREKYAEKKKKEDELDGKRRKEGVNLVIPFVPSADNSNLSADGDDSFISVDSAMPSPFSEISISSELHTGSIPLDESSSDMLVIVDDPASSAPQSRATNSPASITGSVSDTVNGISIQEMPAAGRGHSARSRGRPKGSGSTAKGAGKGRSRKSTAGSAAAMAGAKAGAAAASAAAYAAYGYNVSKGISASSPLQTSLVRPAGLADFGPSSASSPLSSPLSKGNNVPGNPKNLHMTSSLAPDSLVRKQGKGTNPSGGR

Compound: Nc1ncnc2c1ncn2[C@@H]1O[C@H](COP(=O)(O)OP(=O)(O)OP(=O)(O)O)[C@@H](O)[C@H]1O [adenosine triphosphate]
Assay: NP40-soluble protein abundance relative to vehicle (solubility fold change) (ratio); higher = more soluble protein in presence of ATP
In short: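 Across three independent experiments, values are fold changes against the detergent-processed vehicle for each replicate, based on vsn-normalised intensities. The samples were Jurkat crude lysate treated with eight concentrations (0.1 to 10 mM) for 10 min at room temperature and then 3 min at 37 °C. Lysate was solubilised with 0.8% NP40 and benzonase, ultracentrifuged, and the supernatant analysed by TMT-labelled LC-MS/MS.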

Target	NP40-soluble protein abundance (concentration: 1mM)	NP40-soluble protein abundance (concentration: 2mM)	NP40-soluble protein abundance (concentration: 4mM)	NP40-soluble protein abundance (concentration: 6mM)	NP40-soluble protein abundance (concentration: 8mM)	NP40-soluble protein abundance (concentration: 10mM)
UniProt Q9UL40 and related entries	1.03 ± 0.071	1.05 ± 0.036	1.13 ± 0.06	1.18 ± 0.11	1.23 ± 0.12	1.24 ± 0.13
ENOPH1 (UniProt Q9UHY7)	1.01 ± 0.019	1.03 ± 0.058	0.994 ± 0.047	1.01 ± 0.083	0.995 ± 0.073	1 ± 0.074
UniProt Q9UET6 and related entries	1.11 ± 0.1	1.11 ± 0.06	1.11 ± 0.035	1.18 ± 0.16	1.12 ± 0.1	1.09 ± 0.045
SLC39A10 (UniProt Q9ULF5)	0.928 ± 0.054	0.969 ± 0.023	0.967 ± 0.019	1.01 ± 0.041	0.941 ± 0.024	0.926 ± 0.022
ASF1A (UniProt Q9Y294)	1.14 ± 0.054	1.08 ± 0.03	1.07 ± 0.053	1.081 ± 0.0092	1.09 ± 0.089	1.02 ± 0.03
FKBPL (UniProt Q9UIM3)	0.973 ± 0.061	0.987 ± 0.052	0.985 ± 0.051	0.97 ± 0.08	0.932 ± 0.026	0.894 ± 0.1
ZHX1 (UniProt Q9UKY1)	1.11 ± 0.1	1.09 ± 0.036	1.08 ± 0.076	1.13 ± 0.057	1.08 ± 0.16	1.14 ± 0.23
UXT (UniProt Q9UBK9)	0.9681 ± 0.0014	0.9287 ± 0.0048	0.86 ± 0.011	0.91 ± 0.057	0.887 ± 0.049	0.872 ± 0.052
UBA2 (UniProt Q9UBT2)	0.969 ± 0.02	0.958 ± 0.033	0.927 ± 0.021	0.943 ± 0.066	0.936 ± 0.028	0.931 ± 0.041
UniProt Q9UJY5 and related entries	0.946 ± 0.03	0.941 ± 0.0063	0.945 ± 0.034	0.9461 ± 0.0075	0.911 ± 0.025	0.906 ± 0.012
YEATS2 (UniProt Q9ULM3)	1.14 ± 0.11	1.09 ± 0.049	1.14 ± 0.08	1.1 ± 0.05	1.36 ± 0.14	1.22 ± 0.11
SEL1L (UniProt Q9UBV2)	0.939 ± 0.019	0.96 ± 0.032	0.958 ± 0.034	0.947 ± 0.021	0.934 ± 0.047	0.949 ± 0.01
PNMA2 (UniProt Q9UL42)	0.973 ± 0.033	1.01 ± 0.056	0.969 ± 0.026	0.976 ± 0.072	1.01 ± 0.038	0.978 ± 0.031
UVRAG (UniProt Q9P2Y5)	1.05 ± 0.044	1 ± 0.028	0.968 ± 0.029	0.977 ± 0.042	1.03 ± 0.012	1.008 ± 0.0075
UniProt Q9UJV9 and related entries	1.41 ± 0.093	1.41 ± 0.12	1.47 ± 0.15	1.45 ± 0.14	1.51 ± 0.16	1.52 ± 0.16
UniProt Q9UN86-2|Q9UN86	1.08 ± 0.048	1.13 ± 0.038	1.17 ± 0.038	1.33 ± 0.049	1.25 ± 0.025	1.29 ± 0.046
RNF7 (UniProt Q9UBF6)	1.24 ± 0.3	1.03 ± 0.079	1 ± 0.08	1.06 ± 0.14	0.939 ± 0.089	0.942 ± 0.041
UBQLN2 (UniProt Q9UHD9)	0.887 ± 0.11	0.907 ± 0.13	0.904 ± 0.058	0.914 ± 0.12	0.801 ± 0.043	0.762 ± 0.084
MED13 (UniProt Q9UHV7)	1.24 ± 0.11	1.31 ± 0.027	1.23 ± 0.022	1.17 ± 0.015	1.07 ± 0.022	1.285 ± 0.012
UniProt Q9UPP1 and related entries	1.05 ± 0.028	1.06 ± 0.026	1.07 ± 0.038	1.07 ± 0.044	1.11 ± 0.012	1.15 ± 0.033
MRC2 (UniProt Q9UBG0)	0.96 ± 0.047	0.954 ± 0.04	0.982 ± 0.046	0.988 ± 0.051	0.972 ± 0.031	0.936 ± 0.048
PEF1 (UniProt Q9UBV8)	0.843 ± 0.054	0.912 ± 0.051	0.872 ± 0.018	0.855 ± 0.069	0.874 ± 0.031	0.819 ± 0.11
UniProt Q9P2R7 and related entries	0.972 ± 0.03	0.954 ± 0.034	0.927 ± 0.036	0.952 ± 0.043	0.961 ± 0.059	0.924 ± 0.036
UniProt Q9UQ84 and related entries	0.963 ± 0.13	1.065 ± 0.0071	1.088 ± 0.0069	1.1 ± 0.095	1.04 ± 0.038	1.08 ± 0.019
DIP2B (UniProt Q9P265)	0.995 ± 0.073	0.995 ± 0.055	1 ± 0.045	0.943 ± 0.052	1.01 ± 0.019	0.997 ± 0.039
HDAC6 (UniProt Q9UBN7)	0.98 ± 0.063	0.991 ± 0.051	0.955 ± 0.038	0.964 ± 0.064	0.964 ± 0.056	0.952 ± 0.049
UniProt Q9P2K3-3	0.981 ± 0.055	0.968 ± 0.043	0.968 ± 0.048	1.04 ± 0.09	0.97 ± 0.053	0.996 ± 0.059

Rewritten field by field: part of the list above.
DIP2B (UniProt Q9P265)
  NP40-soluble protein abundance (concentration: 1mM): 0.995 ± 0.073; NP40-soluble protein abundance (concentration: 2mM): 0.995 ± 0.055; NP40-soluble protein abundance (concentration: 4mM): 1 ± 0.045; NP40-soluble protein abundance (concentration: 6mM): 0.943 ± 0.052; NP40-soluble protein abundance (concentration: 8mM): 1.01 ± 0.019; NP40-soluble protein abundance (concentration: 10mM): 0.997 ± 0.039
HDAC6 (UniProt Q9UBN7)
  NP40-soluble protein abundance (concentration: 1mM): 0.98 ± 0.063; NP40-soluble protein abundance (concentration: 2mM): 0.991 ± 0.051; NP40-soluble protein abundance (concentration: 4mM): 0.955 ± 0.038; NP40-soluble protein abundance (concentration: 6mM): 0.964 ± 0.064; NP40-soluble protein abundance (concentration: 8mM): 0.964 ± 0.056; NP40-soluble protein abundance (concentration: 10mM): 0.952 ± 0.049

Remaining list, next part:

Target	NP40-soluble protein abundance (concentration: 1mM)	NP40-soluble protein abundance (concentration: 2mM)	NP40-soluble protein abundance (concentration: 4mM)	NP40-soluble protein abundance (concentration: 6mM)	NP40-soluble protein abundance (concentration: 8mM)	NP40-soluble protein abundance (concentration: 10mM)
MBD2 (UniProt Q9UBB5)	1.07 ± 0.11	1.05 ± 0.11	1.07 ± 0.1	1.1 ± 0.19	1.09 ± 0.097	1.08 ± 0.12
CROT (UniProt Q9UKG9)	0.994 ± 0.091	1.02 ± 0.047	0.977 ± 0.068	0.946 ± 0.1	1.01 ± 0.073	1.01 ± 0.074
AK3 (UniProt Q9UIJ7)	0.9201 ± 0.0046	0.933 ± 0.0096	0.897 ± 0.012	0.898 ± 0.04	0.903 ± 0.036	0.879 ± 0.045
UniProt Q9UHP3 and related entries	0.925 ± 0.062	0.925 ± 0.064	0.918 ± 0.044	0.795 ± 0.15	0.87 ± 0.028	0.921 ± 0.043
UniProt Q9UH92 and related entries	1.07 ± 0.056	1.09 ± 0.13	1.06 ± 0.13	1.06 ± 0.036	0.991 ± 0.039	0.926 ± 0.034
CYB5R1 (UniProt Q9UHQ9)	1 ± 0.11	0.996 ± 0.09	0.977 ± 0.089	0.942 ± 0.16	0.996 ± 0.065	0.992 ± 0.072
MAGED2 (UniProt Q9UNF1)	0.95 ± 0.032	0.9488 ± 0.0072	0.923 ± 0.011	0.961 ± 0.02	0.911 ± 0.0077	0.921 ± 0.026
UniProt Q9UP83 and related entries	0.981 ± 0.04	0.993 ± 0.058	0.955 ± 0.044	0.936 ± 0.068	0.924 ± 0.063	0.922 ± 0.04
UniProt Q9UJ83 and related entries	0.997 ± 0.083	0.99 ± 0.052	0.984 ± 0.045	0.936 ± 0.071	0.971 ± 0.019	0.959 ± 0.039
ZMYM2 (UniProt Q9UBW7)	0.984 ± 0.041	0.974 ± 0.061	0.997 ± 0.038	1.03 ± 0.081	1.07 ± 0.056	1.11 ± 0.065
UniProt Q9UK53-2|A0A0C4DFW2|Q9UK53 and related entries	1.02 ± 0.11	1.02 ± 0.043	0.994 ± 0.057	1.02 ± 0.12	1.05 ± 0.07	1.05 ± 0.08
UniProt Q9UGR2 and related entries	1.03 ± 0.019	1.04 ± 0.02	1.08 ± 0.044	1.05 ± 0.022	1.06 ± 0.018	1.06 ± 0.025
UniProt Q9UBS9 and related entries	0.986 ± 0.099	0.93 ± 0.12	0.957 ± 0.17	0.999 ± 0.14	0.929 ± 0.19	0.953 ± 0.1
NXF1 (UniProt Q9UBU9)	1.1 ± 0.039	1.109 ± 0.007	1.22 ± 0.059	1.26 ± 0.05	1.42 ± 0.092	1.54 ± 0.079
UniProt Q9UPW0 and related entries	0.912 ± 0.076	0.943 ± 0.081	0.897 ± 0.069	0.923 ± 0.05	0.872 ± 0.076	0.864 ± 0.063
Q9UBK7-2|Q9UNT1-2 (UniProt Q9UNT1+Q9UBK7)	0.959 ± 0.039	0.989 ± 0.043	0.959 ± 0.052	0.955 ± 0.022	0.926 ± 0.046	0.924 ± 0.021
UniProt Q9UHL0 and related entries	0.994 ± 0.011	0.935 ± 0.12	1.19 ± 0.082	1.278 ± 0.0052	1.03 ± 0.11	1.01 ± 0.17
UniProt Q9UGP4 and related entries	0.9406 ± 0.0089	0.955 ± 0.011	0.954 ± 0.037	0.95 ± 0.027	0.94 ± 0.05	0.957 ± 0.025
NENF (UniProt Q9UMX5)	0.955 ± 0.053	0.961 ± 0.064	0.962 ± 0.05	0.94 ± 0.063	0.9121 ± 0.0089	0.875 ± 0.055
CHMP2B (UniProt Q9UQN3)	1.12 ± 0.1	1.13 ± 0.05	1.09 ± 0.12	1.15 ± 0.05	1.05 ± 0.08	1.08 ± 0.041
UniProt Q9UKZ1	1.08 ± 0.049	1.11 ± 0.016	1.17 ± 0.062	1.21 ± 0.069	1.22 ± 0.032	1.2 ± 0.072
UniProt Q9UKM9 and related entries	1.05 ± 0.064	1.05 ± 0.1	1.02 ± 0.11	1.05 ± 0.15	1.01 ± 0.14	1.03 ± 0.11
INO80 (UniProt Q9ULG1)	1.2 ± 0.14	1.5 ± 0.34	1.24 ± 0.093	1.23 ± 0.18	1.34 ± 0.15	1.38 ± 0.18
UniProt Q9UHD8 and related entries	1.01 ± 0.021	1 ± 0.03	0.987 ± 0.036	0.984 ± 0.044	0.988 ± 0.042	0.963 ± 0.03
PPIE (UniProt Q9UNP9)	0.995 ± 0.035	1.005 ± 0.0045	0.968 ± 0.015	1.016 ± 0.01	0.9771 ± 0.0044	0.986 ± 0.015
UniProt Q9UDY8 and related entries	1.05 ± 0.072	1.04 ± 0.096	1.02 ± 0.059	0.991 ± 0.061	1.04 ± 0.012	1.02 ± 0.032
